{"source": "patent US4918064A", "about": "“Phenyl glycines for use in reducing neurotoxic injury” (G. D. Searle & Co., priority 1987, dated 1990)", "origin": "cited, not measured here", "system": "chick embryo retina", "settings": "agonist alone, pilot experiments, 30 min; cited from earlier work", "note": "At least one structure is not confirmed: it was looked up by name or label, or the drawing left a doubt.", "data": [{"molecule": "CN[C@H](CC(=O)O)C(=O)O", "note": "[NMDA, N-methyl-D-aspartate]", "values": [{"measurement": "lowest concentration required to consistently obtain fully developed retinal lesions", "result": 200, "unit": "µM"}]}]}
